Reference: PubChem BioAssay AID1259314 (Drosophila RNAi Screening Center, 2017)

- Aim: 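Modifiers of manganese chloride toxicity in fly cells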 (primary screen)
- Cell system: Drosophila S2R+ cells
- Reagent: long dsRNA against Drosophila genes
- Timing: 5 days (4 days knock-down, then 1 day metal exposure)
- Conditions: manganese chloride added to 15 mM for 24 hours
- Measurement: 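Cellular ATP measured by luciferase light, scaled to the plate mean, averaged across replicates and z-scored over plates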
- Scale: mean ATP z-score: higher = more ATP than the plate average, more viable cells under manganese
- Call rule: 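Called active when the mean ATP z-score is above 1.5 or below -1.5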
- Calls: active = strong ATP change, up or down; inactive = no strong ATP change
This is one part, drawn at random, of about 3,100 reagents. 289 of all reagents (9.3%) were called active. 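Active includes both higher and lower ATP than plate average; check the z-score sign for direction.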 A plus sign joins genes that one reagent is predicted to hit. Not given: the amount of reagent.

The first 5 entries as a preview:
| gene | amplicon | mean ATP z-score | Call |
| --- | --- | --- | --- |
| rt (rotated abdomen) | DRSC11391 | -1.13 | inactive |
| rt (rotated abdomen) | DRSC39519 | -0.231 | inactive |
| kon (kon-tiki) | DRSC02033 | 1.28 | inactive |
| kon (kon-tiki) | DRSC39622 | 0.0273 | inactive |
| CG2901 | DRSC18239 | -0.217 | inactive |

The listing, from the first entry:
| gene | amplicon | mean ATP z-score | Call |
| --- | --- | --- | --- |
| rt (rotated abdomen) | DRSC11391 | -1.13 | inactive |
| rt (rotated abdomen) | DRSC39519 | -0.231 | inactive |
| kon (kon-tiki) | DRSC02033 | 1.28 | inactive |
| kon (kon-tiki) | DRSC39622 | 0.0273 | inactive |
| CG2901 | DRSC18239 | -0.217 | inactive |
| CG2901 | DRSC39506 | -0.345 | inactive |
| CNMaR (CNMamide Receptor) | DRSC08992 | 0.581 | inactive |
| CNMaR (CNMamide Receptor) | DRSC10224 | -1.55 | active |
| Indy-2 + CG33934 | DRSC15685 | 0.908 | active |
| Indy-2 + CG33934 | DRSC15686 | -0.525 | inactive |
| Sec61gamma (Sec61 gamma subunit) | DRSC19570 | 0.757 | inactive |
| Sec61gamma (Sec61 gamma subunit) | DRSC25563 | 0.595 | inactive |
| Gr89a (Gustatory receptor 89a) | DRSC15023 | -0.142 | inactive |
| Gr89a (Gustatory receptor 89a) | DRSC39468 | -0.0541 | inactive |
| Lerp (lysosomal enzyme receptor protein) | DRSC14751 | -0.0406 | inactive |
| Lerp (lysosomal enzyme receptor protein) | DRSC16030 | 0.524 | inactive |
| Lerp (lysosomal enzyme receptor protein) | DRSC16031 | 0.311 | inactive |
| Prip | DRSC07044 | 1.02 | inactive |
| Prip | DRSC26459 | -0.356 | inactive |
| Gr9a (Gustatory receptor 9a) | DRSC22506 | -0.517 | inactive |
| Gr9a (Gustatory receptor 9a) | DRSC39581 | -0.112 | inactive |
| Gr39b (Gustatory receptor 39b) | DRSC26464 | -0.404 | inactive |
| Gr39b (Gustatory receptor 39b) | DRSC39892 | 0.109 | inactive |
| Unc50 (Unc50 RNA binding protein) | DRSC16561 | -0.779 | inactive |
| Unc50 (Unc50 RNA binding protein) | DRSC28560 | 0.643 | inactive |
| Grl36a (Gustatory receptor-like 36a) | DRSC21748 | 0.458 | inactive |
| Tsp42Ee (Tetraspanin 42Ee) | DRSC05947 | 1.9 | active |
| Tsp42Ee (Tetraspanin 42Ee) | DRSC29024 | 1.42 | inactive |
| Ktl (Kctd12-like) | DRSC14270 | -0.896 | inactive |
| CG30265 | DRSC21592 | 1.1 | inactive |
| Glut3 (Glucose transporter type 3) | DRSC16681 | 0.0389 | inactive |
| Glut3 (Glucose transporter type 3) | DRSC26249 | 0.48 | inactive |
| Or33a (Odorant receptor 33a) | DRSC03386 | 0.0207 | inactive |
| 5-HT2B (5-hydroxytryptamine (serotonin) receptor 2B) | DRSC16360 | -0.672 | inactive |
| 5-HT2B (5-hydroxytryptamine (serotonin) receptor 2B) | DRSC16362 | -1.11 | inactive |
| 5-HT2B (5-hydroxytryptamine (serotonin) receptor 2B) | DRSC25577 | 0.87 | inactive |
| Asph (Aspartyl beta-hydroxylase) | DRSC06783 | 1.39 | inactive |
| Asph (Aspartyl beta-hydroxylase) | DRSC29507 | -1.01 | inactive |
| wun (wunen) | DRSC07719 | -0.113 | inactive |
| wun (wunen) | DRSC36710 | 0.37 | inactive |
| wun (wunen) | DRSC36711 | 1.01 | inactive |
| Nrk (Neurospecific receptor kinase) | DRSC07480 | -1.28 | inactive |
| Nrk (Neurospecific receptor kinase) | DRSC36725 | 0.398 | inactive |
| Nrk (Neurospecific receptor kinase) | DRSC36726 | 0.438 | inactive |
| CG6230 | DRSC01989 | 0.944 | inactive |
| Nup358 (Nucleoporin 358kD) | DRSC29772 | -1.94 | active |
| CG11353 | DRSC08182 | -0.173 | inactive |
| CG11353 | DRSC39681 | 0.924 | inactive |
| CG13016 | DRSC06271 | -0.78 | inactive |
| CG13016 | DRSC39858 | -1.17 | inactive |
| Gr58a (Gustatory receptor 58a) | DRSC03910 | -0.147 | inactive |
| ppk14 (pickpocket 14) | DRSC03238 | 1.31 | inactive |
| ppk14 (pickpocket 14) | DRSC39786 | 0.609 | inactive |
| Ir56d (Ionotropic receptor 56d) | DRSC06590 | -0.437 | inactive |
| Ir56d (Ionotropic receptor 56d) | DRSC28383 | -0.419 | inactive |
| alka (alkaliphile) | DRSC06136 | -0.137 | inactive |
| CG31693 | DRSC03674 | 0.146 | inactive |
| CG31693 | DRSC39586 | 0.061 | inactive |
| CG13575 | DRSC22851 | -0.291 | inactive |
| CG13575 | DRSC39524 | 0.663 | inactive |
| comm (commissureless) | DRSC11336 | -0.385 | inactive |
| comm (commissureless) | DRSC24259 | 0.317 | inactive |
| sll (slalom) | DRSC16271 | 2.22 | active |
| sll (slalom) | DRSC29864 | -0.0948 | inactive |
| CG31741 | DRSC02887 | -0.0327 | inactive |
| stj (straightjacket) | DRSC06124 | -0.219 | inactive |
| CG10505 | DRSC04075 | 0.665 | inactive |
| CG10505 | DRSC39815 | 0.76 | inactive |
| mthl11 (methuselah-like 11) | DRSC12779 | -0.0662 | inactive |
| mthl11 (methuselah-like 11) | DRSC28437 | -1.93 | active |
| CNT2 (Concentrative nucleoside transporter 2) | DRSC07073 | 2.66 | active |
| CG3652 | DRSC00624 | 1.97 | active |
| Atg9 (Autophagy-related 9) | DRSC38118 | -0.0912 | inactive |
| Atg9 (Autophagy-related 9) | DRSC38119 | 0.0743 | inactive |
| Or1a (Odorant receptor 1a) | DRSC18689 | 0.0225 | inactive |
| Or1a (Odorant receptor 1a) | DRSC39473 | 0.413 | inactive |
| MRP (Multidrug-Resistance like Protein 1) | DRSC02942 | -1.01 | inactive |
| MRP (Multidrug-Resistance like Protein 1) | DRSC39503 | -0.0509 | inactive |
| Sec24CD (Secretory 24CD) | DRSC00300 | 0.579 | inactive |
| Pis (Phosphatidylinositol synthase) | DRSC20178 | -0.704 | inactive |
| Pis (Phosphatidylinositol synthase) | DRSC29976 | 0.926 | inactive |
| ste24c + CG30461 | DRSC05639 | -0.437 | inactive |
| ste24c + CG30461 | DRSC07316 | 0.213 | inactive |
| CadN2 (Cadherin-N2) | DRSC03062 | -0.843 | inactive |
| CadN2 (Cadherin-N2) | DRSC03063 | -1.08 | inactive |
| Coq2 (Coenzyme Q biosynthesis protein 2) | DRSC29659 | -1.89 | active |
| Coq2 (Coenzyme Q biosynthesis protein 2) | DRSC39437 | -1.27 | inactive |
| Ir93a (Ionotropic receptor 93a) | DRSC15212 | 0.395 | inactive |
| Ir93a (Ionotropic receptor 93a) | DRSC28149 | 0.201 | inactive |
| CG13078 | DRSC02182 | 0.242 | inactive |
| CG13869 + CG11099 | DRSC24218 | 1.26 | inactive |
| LBR (Lamin B receptor) | DRSC04298 | -0.556 | inactive |
| LBR (Lamin B receptor) | DRSC29462 | -1.74 | active |
| CG32305 | DRSC08614 | 0.474 | inactive |
| CG32305 | DRSC29854 | -0.0506 | inactive |
| CadN (Cadherin-N) | DRSC03286 | -0.471 | inactive |
| CadN (Cadherin-N) | DRSC27368 | -0.904 | inactive |
| Tmc (Transmembrane channel-like) | DRSC10356 | -0.896 | inactive |
| CG42816 | DRSC11230 | -1.05 | inactive |
| Octbeta3R (Octopamine beta3 receptor) | DRSC21853 | 0.712 | inactive |
| Octbeta3R (Octopamine beta3 receptor) | DRSC25327 | -0.355 | inactive |
| CG11162 | DRSC22538 | -0.158 | inactive |
| CG11162 | DRSC39680 | 0.156 | inactive |
| Piezo | DRSC03092 | -0.741 | inactive |
| Piezo | DRSC39751 | -0.757 | inactive |
| SLC5A11 (Sodium/solute co-transporter-like 5A11) | DRSC03088 | -0.961 | inactive |
| SLC5A11 (Sodium/solute co-transporter-like 5A11) | DRSC39771 | -1.1 | inactive |
| CG7342 | DRSC16230 | -0.711 | inactive |
| CG7342 | DRSC39501 | -0.776 | inactive |
| CG9981 | DRSC20225 | 0.774 | inactive |
